Results: patent US9006273B2, “N-hetero-ring-substituted amide derivative” (Daiichi Sankyo Company, Limited, priority 2011, dated 2015)
Some results were stated once for a whole list of compounds, not compound by compound.

System: Male C57/BL6J mice
Assay: Mouse oGTT (Oral Glucose Tolerance Test)
Assay type: in vivo
Settings: fasted 16 to 17 hours, compound 10 mg/kg orally, glucose orally 30 minutes after compound, AUC from 5 minutes before to 120 minutes after glucose

“4-(5-{(1R)-1-[4-(cyclopropylcarbonyl)phenoxy]propyl}-1,2,4-oxadiazol-3-yl)-2-fluoro-N-[(3S,4R)-4-hydroxytetrahydrofuran-3-yl]benzamide, and 4-(5-{(1R)-1-[4-(cyclopropylcarbonyl)phenoxy]propyl}-1,2,4-oxadiazol-3-yl)-2-fluoro-N-[(3R,4S)-4-hydroxytetrahydrofuran-3-yl]benzamide [Example 1]” was tested, and the “percentage decrease in plasma glucose AUC (%) compared with the negative control group” value was ≥ 15%.
